{
  "source": "patent US4188398A",
  "about": "“Method for treating epilepsy” (priority 1978, dated 1980)",
  "test": "Duration of urethane-induced sleep",
  "type": "in vivo",
  "settings": "in words",
  "source_text": "Nembutal was used as a trunk narcotic, and urethane as a cortical narcotic.",
  "note": "For at least one compound, name, drawing or mass did not settle the structure.",
  "data": [
    {"smiles": "CCC1(C)CC(=O)NC1=O", "note": "(stereo not drawn) [Zarontin, α-methyl, ethylsuccinimide]", "values": [
      {"measurement": "effect upon the duration of urethane-induced sleep", "result": "no effect upon the duration of urethane-induced sleep"}
    ]}
  ]
}
